Assay results as given in publication PMC6811503.
Results are given in words; binding and its absence hold for the method and conditions named. Binding seen in cells or lysates may run through a third protein. These calls come from enrichment with a bait or labelling near it, and not all partners need be listed. Where a sequence is shown, tags or fusion partners need not be part of it.

Target: T1, Pbp1-4×FLAG (C. neoformans) (UniProt J9VND4)
T1 sequence: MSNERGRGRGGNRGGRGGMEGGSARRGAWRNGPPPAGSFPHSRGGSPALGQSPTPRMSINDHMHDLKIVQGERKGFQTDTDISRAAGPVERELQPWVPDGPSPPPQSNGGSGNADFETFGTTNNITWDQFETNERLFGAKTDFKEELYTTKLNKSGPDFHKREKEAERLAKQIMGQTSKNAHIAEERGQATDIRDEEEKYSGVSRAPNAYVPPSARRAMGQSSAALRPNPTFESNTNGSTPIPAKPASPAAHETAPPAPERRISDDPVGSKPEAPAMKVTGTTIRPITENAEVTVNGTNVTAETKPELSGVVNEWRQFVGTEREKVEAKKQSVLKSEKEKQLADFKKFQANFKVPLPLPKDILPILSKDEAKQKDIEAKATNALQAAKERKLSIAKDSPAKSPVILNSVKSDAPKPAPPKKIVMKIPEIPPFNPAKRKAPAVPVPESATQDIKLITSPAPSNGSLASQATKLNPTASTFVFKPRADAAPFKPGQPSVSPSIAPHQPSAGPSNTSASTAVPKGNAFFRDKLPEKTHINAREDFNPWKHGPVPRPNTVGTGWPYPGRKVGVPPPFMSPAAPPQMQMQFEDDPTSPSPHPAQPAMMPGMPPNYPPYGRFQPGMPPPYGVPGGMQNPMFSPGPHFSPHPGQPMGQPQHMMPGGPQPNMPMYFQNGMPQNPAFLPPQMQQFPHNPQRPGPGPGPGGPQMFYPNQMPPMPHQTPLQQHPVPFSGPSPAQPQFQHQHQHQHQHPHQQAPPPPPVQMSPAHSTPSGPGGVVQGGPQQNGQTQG
Assay: affinity purification with mass spectrometry; anti-FLAG M2 affinity gel on lysate of HP181 (Pbp1-4xFLAG), untagged H99 as control; cells grown at 30°C then 1 h at 37°C; lysis buffer 50 mM Tris-HCl pH 7.5, 150 NaCl, 0.5 mM EDTA, 0.5% Triton X-100; 4°C; one Coomassie-stained band seen only with HP181 was excised, digested with trypsin and analysed by LC-MS/MS

B1: Spt16 (protein, UniProt J9VUL6 1-1034)
chain: MSDIRLDSATFFKRAAKIFDSWEKPTGDTQALEDIDAIAIILGDPNDEVASYTKTTALQLWLLGYEFPSTLMVFEKSPRKITFVCGSSKAKLIRQLQPSNGIEIDVKVRSKDATAAKETMEEVVASLNGKFGSLPKDRPIGKLVDEWNSAVETKGGLEVVDVAIPISAVLAEKDGEELKTIITSAKLTSTVMINYFKSKMESIIDRGTKMSHEALAQLVEEKIGNEEKGPDMKLWNKNPSLGEIDFASSEFVYSPVIQSGGKYDLKVTAASNNDNLKPGIILANMGIRYKNYCSNMGRTFLISPSKKQESQYTTLLEVRKEALALLKTGAVASDVYTSVHRSLETKNGTLADSFLKNLGFATGMEYRDSSFLLNAKNNRELKENMVLVLTIGVTDLPDSKNKGKTYSLLLSDTVKVGQNGAAVLTEGCTRLSDVVMDMEEEEEEDVKPQIDKKPKINNSPKKPRSSTVGGRVLNAKTRGANREQATQTTAEKIKTNQQRLHAQLNADGVKRWEADAGGKNGAQQKVVKRYESYRREEQLPRAVEDRRIYVDEQRQSVVLPINGYAVPYHISTIKNVTKTEESNHMVLRINFQSPGQIAGKKEDMPFEDPDANFIRSVSFRSQDLRHMLKVYEAITALKKAAVKRETERKELADVIEQEKLIEVKGRHPYVLKNVFPRPGPEGKKTDGNVEIHQNGIRFRPDGPASKIDILFSNIKHLFFQPSEKELIVIIHVHLKAPIMLGKKKTSDVQFYREVADMSFDETGGKKRRARYGDEDEIEQEQEDRKRRAELDKLFHDFARRIETAAQAQQFELEVDVPFRELGFNGVPHKSIVALLPTTNCLIHISELPFTVITLSEVEIVHLERVQFGLKNFDMVFVLQDLKKPPIHINSIPVAHLDNVKEWLDSCDVPISEGPVNLSWPAIMKTVNEDPHAFYAEGGWNFLTGSGSDDGSEESEEGSEFEGDSDVFDESSGSDEDSESDFEGDSDSGTAESLSDEGEDWDELERKAKRADEKHRTDRGDSDEDGKKKKKGSRR
binding: binds
